Source: PubChem BioAssay AID2685 (National Center for Advancing Translational Sciences (NCATS), 2010)
The other results are listed elsewhere or left out. Further columns of the screen follow, without active or inactive calls. Compounds called inactive in the main read-out are mostly missing here. Potencies come from curve fits of mixed quality, noted in brackets.

Experiment: qHTS Assay for Lipid Storage Modulators in Drosophila S3 Cells;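 for cell number change: cells counted by Cell Tracker Red CMTPX staining in the red channel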
Conditions: BODIPY lipid droplet fluorescence, 18-24 h; for cell number change: measured here: cell count max response, cells fed with added oleic acid
Method in brief: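 Drosophila S3 cells got compounds at several concentrations plus oleic acid (400 uM solution). Laser-scanning cytometry with 488 nm excitation read lipid droplets at 500-530 nm and cells at 575-640 nm. Percent activity was relative to 20 uM Triacsin C.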

[1] = measured here: lipid fluorescence (Fed channel) AC50, cells fed with added oleic acid
[2] = measured here: cell number channel AC50, cells fed with added oleic acid

Question: With `CC1=C(C(=O)OC(C)C)C(c2ccc(Cl)cc2)n2c(s/c(=C\c3ccc(OCC(=O)O)cc3)c2=O)=N1` (stereo not given) as the molecule, how does the cell number change read?
Answer: Its cell number change is 22.8%.

Question: What about the AC50 [1] of the same molecule?
Answer: The AC50 was 32.6 µM [falling, single point].

Question: Which AC50 [2] does the source give for `Cn1nnc2c(sc3nc(N4CCOCC4)c4c(c32)CCCC4)c1=O` here?
Answer: The AC50 was 2.31 µM [rising, partial curve].

Question: With `CCOC(=O)C1=C(C)NC(C)=C(C(=O)OCC)C1c1ccc(Br)o1` as the molecule, how does the cell number change read?
Answer: The cell number change was 0.489%.

Question: And the AC50 [1]?
Answer: Its AC50 is 20.6 µM [falling, single point].

Question: With `O=C(N/N=C/c1ccc(N2CCOCC2)cc1)C1CC1` as the molecule, how does the cell number change read?
Answer: The cell number change was 23.2%.

Question: With `CN(Cc1ccccc1)C(=O)c1nc[nH]c1C(=O)N1CCN(c2ccccc2)CC1` as the molecule, how does the cell number change read?
Answer: Its cell number change is 15.5%.

Question: And the AC50 [1]?
Answer: Its AC50 is 0.116 µM [falling, single point].

Question: For `Cc1ccc(C)c(S(=O)(=O)N(C)Cc2cccs2)c1`, which cell number change is on record?
Answer: Its cell number change is -8.64%.

Question: What about the AC50 [1] of the same molecule?
Answer: The AC50 was 0.0731 µM [falling, full curve, poor fit].

Question: For `O=C(CCS(=O)(=O)c1ccccc1)Nc1nnc(-c2ccco2)o1`, which cell number change is on record?
Answer: The cell number change was -0.587%.

Question: For `COC(=O)C[N+](C)(C)CC#Cc1ccccc1`, which cell number change is on record?
Answer: Its cell number change is -10.1%.

Question: And the AC50 [1]?
Answer: The AC50 was 20.6 µM [falling, partial curve].

Question: For `CCc1nnc(NC(=O)CN2CCC(O)(c3ccccc3OC)CC2)s1`, which cell number change is on record?
Answer: Its cell number change is 12.2%.

Question: Which results are given for `COc1ccc(-c2nnc(-c3ccccc3)o2)cc1OC`?
Answer: cell number change: -16.8%; AC50 [1]: 29.1 µM [falling, single point]

Question: Which AC50 [2] does the source give for `Cc1cccc(Cl)c1NNC(=O)Nc1c([N+](=O)[O-])c(C)nn1C` here?
Answer: Its AC50 is 0.259 µM [rising, full curve].

Question: And the AC50 [1]?
Answer: Its AC50 is 0.146 µM [rising, full curve, poor fit].

Question: For `CCc1ccc(CN2CCN(S(=O)(=O)Cc3ccccc3)CC2)cc1`, which cell number change is on record?
Answer: Its cell number change is 13.3%.

Question: And the AC50 [1]?
Answer: The AC50 was 16.4 µM [rising, partial curve].

Question: For `O=C(CCN=C1NS(=O)(=O)c2ccccc21)OCc1c(F)c(F)c(F)c(F)c1F`, which cell number change is on record?
Answer: Its cell number change is -50%.

Question: Which cell number change does the source give for `CCOC(=O)c1c(N)sc(C(O)(C(F)(F)F)C(F)(F)F)c1-c1ccc(F)cc1` here?
Answer: The cell number change was -62.6%.

Question: What about the AC50 [2] of the same molecule?
Answer: The AC50 was 29.1 µM [falling, single point].

Question: And the AC50 [1]?
Answer: Its AC50 is 29.1 µM [falling, single point].

Question: For `CC(C)(C)C1CCC(OCC(O)CN2CCN(c3ccccc3)CC2)CC1` (stereo not given), which cell number change is on record?
Answer: The cell number change was -5.44%.

Question: What about the AC50 [1] of the same molecule?
Answer: Its AC50 is 3.66 µM [rising, single point].

Question: Which cell number change does the source give for `CCOC(=O)C1CCN(C(C(=O)NC2CCCCC2)c2ccc(OC)cc2)CC1` (stereo not given) here?
Answer: Its cell number change is 16.2%.

Question: With `CC(=O)N1CCN(c2ccc(NCc3ccc(C)cc3)cc2)CC1` as the molecule, how does the cell number change read?
Answer: The cell number change was 13.5%.

Question: And the AC50 [1]?
Answer: The AC50 was 29.1 µM [rising, single point].

Question: Which cell number change does the source give for `COc1cc(-c2cc(C(=O)Nc3ccc(N4CCOCC4)cc3)c3ccccc3n2)cc(OC)c1OC` here?
Answer: The cell number change was 24%.

Question: And the AC50 [2]?
Answer: Its AC50 is 0.116 µM [rising, full curve, poor fit].

Question: For `Nc1c2c(nc3sc4c(c13)CCCCC4)CCCCC2`, which AC50 [1] is on record?
Answer: The AC50 was 29.1 µM [falling, single point].

Question: What does the source list for `O=C(NNC(=O)c1ccncc1)c1ccncc1`?
Answer: cell number change: -38.3%; AC50 [2]: 20.6 µM [falling, single point]; AC50 [1]: 20.6 µM [falling, single point]

Question: With `CCC1CCCCN1C(=S)NC(=O)c1cc(Br)ccc1Cl` (stereo not given) as the molecule, how does the AC50 [1] read?
Answer: The AC50 was 0.164 µM [rising, full curve, poor fit].

Question: What does the source list for `CCCCNC(=S)NCCN1CCN(C(=S)NCCCC)CC1`?
Answer: cell number change: -16.4%; AC50 [2]: 0.00461 µM [falling, full curve, poor fit]

Question: Which cell number change does the source give for `CC1CCc2cc(F)ccc2N1C(=O)C1(C)CC1(Cl)Cl` (stereo not given) here?
Answer: Its cell number change is -14.3%.

Question: What about the AC50 [1] of the same molecule?
Answer: The AC50 was 0.13 µM [falling, full curve, poor fit].

Question: With `CCN(CC)c1ncnc2c1[nH]c1ccccc12` as the molecule, how does the cell number change read?
Answer: The cell number change was 5.58%.

Question: What about the AC50 [1] of the same molecule?
Answer: Its AC50 is 3.66 µM [rising, partial curve].

Question: Which AC50 [2] does the source give for `CN(C)S(=O)(=O)c1ccc(N=Cc2c(C(F)(F)F)[nH]n(C)c2=O)cc1` here?
Answer: Its AC50 is 0.326 µM [falling, full curve, poor fit].

Question: Which cell number change does the source give for `Cc1ccc(CC(=O)NCCCn2ccnc2)cc1` here?
Answer: The cell number change was 37.1%.

Question: And the AC50 [2]?
Answer: Its AC50 is 16.4 µM [rising, single point].

Question: Which cell number change does the source give for `COc1ccc2c(C)cc(SCC(=O)NCC3CCCO3)nc2c1` (stereo not given) here?
Answer: The cell number change was 31.1%.

Question: What about the AC50 [1] of the same molecule?
Answer: The AC50 was 29.1 µM [rising, single point].

Question: Which cell number change does the source give for `CC(OC(=O)c1cc(=O)c2cc(Cl)ccc2o1)C(=O)N1CCCC1` (stereo not given) here?
Answer: The cell number change was -26.5%.

Question: For `Cc1ccc(-n2cc(CN(C)Cc3nccn3C)c(-c3cccc(C)c3)n2)cc1`, which cell number change is on record?
Answer: The cell number change was -17.1%.

Question: What about the AC50 [1] of the same molecule?
Answer: Its AC50 is 0.00461 µM [falling, full curve, poor fit].

Question: For `Nc1cc(Cl)ccc1Oc1ccc(Cl)cc1`, which cell number change is on record?
Answer: The cell number change was -48.2%.

Question: And the AC50 [2]?
Answer: Its AC50 is 29.1 µM [falling, single point].

Question: What about the AC50 [1] of the same molecule?
Answer: Its AC50 is 23.1 µM [falling, single point].

Question: Which results are given for `O=C(Cn1ccsc1=NC(=O)c1ccco1)c1ccccc1`?
Answer: cell number change: 18.9%; AC50 [1]: 0.58 µM [rising, full curve]

Question: Which cell number change does the source give for `O=C(COC(=O)c1ccc([N+](=O)[O-])s1)NC(c1ccccc1)c1ccccc1` here?
Answer: The cell number change was 0.235%.

Question: And the AC50 [1]?
Answer: Its AC50 is 1.64 µM [falling, partial curve, poor fit].

Question: Which cell number change does the source give for `COc1c(C(=O)Nc2ccc(CN3CCOCC3)cc2)cc2ccccc2c1Br` here?
Answer: Its cell number change is -13.5%.

Question: And the AC50 [1]?
Answer: The AC50 was 2.91 µM [rising, single point].

Question: With `O=C(CSc1ccc(-c2cccs2)nn1)N1CCCCCC1` as the molecule, how does the cell number change read?
Answer: The cell number change was -18.8%.

Question: For `CCCSc1cc(N2CCOCC2)nc(-c2ccccc2Cl)n1`, which cell number change is on record?
Answer: The cell number change was 99.7%.

Question: What about the AC50 [2] of the same molecule?
Answer: Its AC50 is 29.1 µM [rising, single point].

Question: And the AC50 [1]?
Answer: The AC50 was 29.1 µM [rising, single point].

Question: Which cell number change does the source give for `CN(C)Cc1ccc(F)cc1Sc1ccc(Cl)cc1Cl` here?
Answer: Its cell number change is -51.1%.

Question: What about the AC50 [2] of the same molecule?
Answer: Its AC50 is 29.1 µM [falling, single point].

Question: What about the AC50 [1] of the same molecule?
Answer: Its AC50 is 11.6 µM [falling, partial curve, poor fit].

Question: With `O=C(NCc1nc2ccccc2[nH]1)c1ccccc1F` as the molecule, how does the cell number change read?
Answer: The cell number change was -19.5%.

Question: With `COC(=O)c1sccc1NC(=O)c1ccc(Cl)cc1` as the molecule, how does the cell number change read?
Answer: Its cell number change is -30.5%.

Question: What about the AC50 [2] of the same molecule?
Answer: The AC50 was 0.411 µM [falling, full curve, poor fit].

Question: And the AC50 [1]?
Answer: Its AC50 is 10.3 µM [falling, partial curve].

Question: With `CCOC(=O)N1CCN(c2c(NCc3ccccc3OC)c(=O)c2=O)CC1` as the molecule, how does the cell number change read?
Answer: Its cell number change is -11.6%.

Question: And the AC50 [1]?
Answer: Its AC50 is 0.103 µM [rising, full curve, poor fit].

Question: Which cell number change does the source give for `COc1ccc(CC(=O)NC(C)(C)CC(C)=O)cc1OC` here?
Answer: The cell number change was 165%.

Question: For `CC(=O)O[C@H]1CC(=O)OC(C)(C)C2CC(=O)[C@]3(C)C(CC[C@@](C)([C@@H](O[C@@H]4O[C@H](CO)[C@@H](O)[C@H](O)[C@H]4O)c4ccoc4)[C@@]34O[C@@H]4C(=O)O)[C@]21C` (stereo not given in full), which cell number change is on record?
Answer: Its cell number change is 18.9%.

Question: What about the AC50 [1] of the same molecule?
Answer: The AC50 was 10.3 µM [falling, single point].
